In patent US10183053B1, “Multi-component formulations” (priority 2017, dated 2019):
At least one compound was matched to its structure with a doubt left.

Tests used:
primary chicken neurons = experiment: MTT cell viability assay in primary chicken neurons; assay type: cell-based; settings: rutin with no MSM nor FDP
Description: Fertilized chicken eggs were stored under turning at 37.8° C. and 55% humidity until embryonic day eight. Embryos were transferred to a plastic dish and decapitated. Both hemispheres were removed, collected and cleaned from any loose tissue. Hemispheres were mechanically dissociated and 4.8×10^4 cells per well (96-well plates) were seeded in a volume of 160 μL. The cell culture medium consisted of Dubelcco's Modified Eagle's Medium with […], 5% Nu Serum, 0.01% gentamycin and 2 mM L-glutamine. Cultures were maintained at 37° C., 95% humidity and 5% CO2.
Test compositions and vehicle controls were applied to chicken neurons at day-in-vitro 8 for 48 h. On day-in-vitro 10 the viability of neurons was determined according to MTT cell viability assay using a plate reader (570 nm). That assay allows the measurement of the mitochondrial dehydrogenase activity, which reduces yellow MTT to dark blue formazan crystals. […] Optical density was measured with a plate reader at 570 nm. Cell survival rage was expressed as optical density (OS). Values were calculated as percent of control values (vehicle control, which is medium).
Using the same protocol as in Example 2, primary chicken neurons were treated with varying concentrations of methylsulfonylmethane and/or fructose 1,6-diphosphate. Cell viability was determined with the MTT assay. […]

[1] = system: human stem cell derived neurons; experiment: Ischemic challenge (iodoacetic acid) of human stem cell derived neurons, cell viability; assay type: cell-based; settings: iodoacetic acid 5 μM, 24-hour incubation; medium with MSM 0.1 μM and FDP 1 μM; several concentrations; not considered statistically significant; FIG. 13

Compound | cell viability compared to vehicle-treated cells (in words) (primary chicken neurons) | cell viability compared to media with challenge and media/MSM/FDP with challenge (in words) [1]
C[C@@H]1O[C@@H](OC[C@H]2O[C@@H](Oc3c(-c4ccc(O)c(O)c4)oc4cc(O)cc(O)c4c3=O)[C@H](O)[C@@H](O)[C@@H]2O)[C@H](O)[C@H](O)[C@H]1O [Rutin, quercetin-3-O-rutinoside] | did not enhance cell viability | –
C[C@@H]1O[C@@H](OC[C@H]2O[C@@H](Oc3c(-c4ccc(O)c(O)c4)oc4cc(O)cc(O)c4c3=O)[C@H](O)[C@@H](O)[C@@H]2O)[C@H](O)[C@H](O)[C@H]1O [rutin trihydrate] | – | improved cell viability
